Some of the results follow.
Assays:
Test in all cases: log2 fold change, soluble protein after heating vs DMSO (PISA); higher = thermal stabilisation; K562 cells, 10 uM, 30 min; active = over 0.2 and 3.5 SD of the protein, either way, in both replicates (recomputed)
[1] = compound: CC1=C(C=C(C=C1)NC(=O)C2=CC(=CC=C2)C(C)(C)C#N)NC3=CC4=C(C=C3)N=CN(C4=O)C
Outline: (§1)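 Quantification of soluble protein used TMTpro 16plex LC-MS/MS, with channel sums equalised. Samples were the supernatant after 21,000xg for 90 min of pooled aliquots from K562 cells (2×10^6 cells/mL) treated with 10 μM compound for 30 min, heated for 3 min over 48°C-58°C, and extracted in PBS with 0.5% NP-40 at 4°C. Values, from duplicates, describe thermal stability against control samples on a log2 fold-change scale.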

Chains of the proteins cited; added tags and fusions are not shown. Lines headed by an entry give the natural chain unless they say otherwise; changes in a name come on top.
UniProt Q8IZN3: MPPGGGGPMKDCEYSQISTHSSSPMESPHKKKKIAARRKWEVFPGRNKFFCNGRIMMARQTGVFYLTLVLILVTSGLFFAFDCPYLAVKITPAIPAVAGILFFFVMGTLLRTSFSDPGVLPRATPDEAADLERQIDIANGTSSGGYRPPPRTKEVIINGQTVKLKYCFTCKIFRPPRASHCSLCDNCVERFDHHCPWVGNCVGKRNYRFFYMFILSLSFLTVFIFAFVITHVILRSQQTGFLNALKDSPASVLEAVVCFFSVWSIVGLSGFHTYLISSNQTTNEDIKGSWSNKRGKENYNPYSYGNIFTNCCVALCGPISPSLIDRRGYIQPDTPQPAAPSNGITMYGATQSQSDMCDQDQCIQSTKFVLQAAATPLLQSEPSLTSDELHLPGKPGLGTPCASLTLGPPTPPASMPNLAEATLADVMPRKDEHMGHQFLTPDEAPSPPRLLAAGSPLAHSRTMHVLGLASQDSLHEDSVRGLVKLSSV
UniProt O76080: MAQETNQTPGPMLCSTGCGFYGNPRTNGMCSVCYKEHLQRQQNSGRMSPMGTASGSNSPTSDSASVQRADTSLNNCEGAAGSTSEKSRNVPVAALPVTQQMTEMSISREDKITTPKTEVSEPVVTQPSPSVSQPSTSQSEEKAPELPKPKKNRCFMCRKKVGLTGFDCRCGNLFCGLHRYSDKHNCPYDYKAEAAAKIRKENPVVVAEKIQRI
UniProt P61981: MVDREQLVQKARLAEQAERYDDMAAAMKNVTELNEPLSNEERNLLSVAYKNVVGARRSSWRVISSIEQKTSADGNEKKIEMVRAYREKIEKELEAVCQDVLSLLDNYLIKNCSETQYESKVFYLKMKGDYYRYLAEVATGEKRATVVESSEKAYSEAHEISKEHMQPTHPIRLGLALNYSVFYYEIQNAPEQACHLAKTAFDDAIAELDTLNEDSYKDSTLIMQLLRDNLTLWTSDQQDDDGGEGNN
UniProt Q04917: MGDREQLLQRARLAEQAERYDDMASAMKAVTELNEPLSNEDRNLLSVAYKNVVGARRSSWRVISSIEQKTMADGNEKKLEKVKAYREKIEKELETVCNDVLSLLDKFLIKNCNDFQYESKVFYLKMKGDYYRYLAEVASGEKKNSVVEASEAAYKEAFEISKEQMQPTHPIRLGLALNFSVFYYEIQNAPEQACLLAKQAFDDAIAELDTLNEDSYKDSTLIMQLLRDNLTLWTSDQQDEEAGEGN
UniProt Q9C0B5: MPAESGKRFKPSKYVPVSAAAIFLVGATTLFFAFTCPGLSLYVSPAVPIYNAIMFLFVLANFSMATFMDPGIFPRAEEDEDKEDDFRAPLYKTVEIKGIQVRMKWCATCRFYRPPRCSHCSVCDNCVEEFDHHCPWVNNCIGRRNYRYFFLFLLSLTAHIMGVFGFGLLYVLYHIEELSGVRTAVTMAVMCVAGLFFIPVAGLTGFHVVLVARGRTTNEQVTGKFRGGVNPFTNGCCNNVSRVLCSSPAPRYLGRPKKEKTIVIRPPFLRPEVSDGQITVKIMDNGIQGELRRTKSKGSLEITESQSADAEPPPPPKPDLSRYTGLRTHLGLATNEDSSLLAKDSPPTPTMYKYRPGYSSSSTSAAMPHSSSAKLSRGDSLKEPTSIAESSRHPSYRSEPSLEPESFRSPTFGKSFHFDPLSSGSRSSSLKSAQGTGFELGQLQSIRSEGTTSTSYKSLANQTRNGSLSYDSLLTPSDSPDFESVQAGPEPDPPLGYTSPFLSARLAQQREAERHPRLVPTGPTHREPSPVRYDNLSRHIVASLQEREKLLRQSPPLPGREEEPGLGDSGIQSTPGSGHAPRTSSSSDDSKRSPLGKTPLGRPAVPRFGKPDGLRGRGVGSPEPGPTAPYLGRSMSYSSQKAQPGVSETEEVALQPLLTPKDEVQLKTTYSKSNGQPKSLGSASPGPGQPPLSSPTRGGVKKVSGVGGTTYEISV
UniProt Q96NC0: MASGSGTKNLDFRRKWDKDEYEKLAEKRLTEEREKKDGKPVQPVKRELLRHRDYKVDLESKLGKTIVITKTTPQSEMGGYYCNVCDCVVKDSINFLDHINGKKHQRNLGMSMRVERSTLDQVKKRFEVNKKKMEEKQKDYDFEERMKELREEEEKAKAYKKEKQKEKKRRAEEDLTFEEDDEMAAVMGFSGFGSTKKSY
UniProt A8MPS7: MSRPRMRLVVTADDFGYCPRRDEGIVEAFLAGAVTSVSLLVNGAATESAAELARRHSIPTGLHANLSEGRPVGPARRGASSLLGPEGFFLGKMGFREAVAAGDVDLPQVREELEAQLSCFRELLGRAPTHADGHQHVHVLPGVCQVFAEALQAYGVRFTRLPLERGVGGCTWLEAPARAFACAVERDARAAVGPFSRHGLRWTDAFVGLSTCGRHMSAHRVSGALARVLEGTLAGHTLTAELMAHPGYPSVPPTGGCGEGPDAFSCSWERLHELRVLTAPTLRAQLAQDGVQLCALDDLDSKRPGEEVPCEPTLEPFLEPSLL
UniProt P13010: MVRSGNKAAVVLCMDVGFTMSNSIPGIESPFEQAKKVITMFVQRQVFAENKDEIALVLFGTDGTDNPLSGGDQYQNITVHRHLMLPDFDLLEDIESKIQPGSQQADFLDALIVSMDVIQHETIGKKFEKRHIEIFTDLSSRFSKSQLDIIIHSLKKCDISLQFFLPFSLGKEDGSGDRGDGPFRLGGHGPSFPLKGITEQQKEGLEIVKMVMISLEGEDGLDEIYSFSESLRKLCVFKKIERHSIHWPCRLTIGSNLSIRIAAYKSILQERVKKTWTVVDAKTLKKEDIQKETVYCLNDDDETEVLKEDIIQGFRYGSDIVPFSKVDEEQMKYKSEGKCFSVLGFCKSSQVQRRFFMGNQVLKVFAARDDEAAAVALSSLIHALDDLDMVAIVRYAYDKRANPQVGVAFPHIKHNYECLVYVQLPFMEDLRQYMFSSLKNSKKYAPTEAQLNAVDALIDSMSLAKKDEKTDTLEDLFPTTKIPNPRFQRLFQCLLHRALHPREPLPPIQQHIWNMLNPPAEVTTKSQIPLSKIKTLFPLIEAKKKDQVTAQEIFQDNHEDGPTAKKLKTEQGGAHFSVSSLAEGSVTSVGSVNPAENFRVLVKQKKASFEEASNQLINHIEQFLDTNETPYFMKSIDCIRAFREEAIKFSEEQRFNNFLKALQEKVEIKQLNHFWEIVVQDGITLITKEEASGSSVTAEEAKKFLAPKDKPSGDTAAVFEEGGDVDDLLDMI
UniProt Q969M3: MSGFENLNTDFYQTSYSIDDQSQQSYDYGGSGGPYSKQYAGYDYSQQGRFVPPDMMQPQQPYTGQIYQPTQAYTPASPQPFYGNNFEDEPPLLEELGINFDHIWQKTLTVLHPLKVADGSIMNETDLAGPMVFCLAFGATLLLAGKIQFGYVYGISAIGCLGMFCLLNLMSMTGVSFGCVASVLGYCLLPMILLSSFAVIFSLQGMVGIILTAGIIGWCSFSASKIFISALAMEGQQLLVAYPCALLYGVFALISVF
UniProt Q9NUD5: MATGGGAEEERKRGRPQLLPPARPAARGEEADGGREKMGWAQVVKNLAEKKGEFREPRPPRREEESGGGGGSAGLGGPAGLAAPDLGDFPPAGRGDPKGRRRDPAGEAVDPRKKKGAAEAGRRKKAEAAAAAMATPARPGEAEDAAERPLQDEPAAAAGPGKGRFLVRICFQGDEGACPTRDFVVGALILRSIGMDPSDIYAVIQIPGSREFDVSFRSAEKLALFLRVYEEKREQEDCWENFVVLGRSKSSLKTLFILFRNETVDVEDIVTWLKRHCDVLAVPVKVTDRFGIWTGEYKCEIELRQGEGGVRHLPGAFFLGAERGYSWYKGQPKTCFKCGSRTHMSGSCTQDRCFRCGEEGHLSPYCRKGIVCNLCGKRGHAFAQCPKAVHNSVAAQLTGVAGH
UniProt Q8IWT0: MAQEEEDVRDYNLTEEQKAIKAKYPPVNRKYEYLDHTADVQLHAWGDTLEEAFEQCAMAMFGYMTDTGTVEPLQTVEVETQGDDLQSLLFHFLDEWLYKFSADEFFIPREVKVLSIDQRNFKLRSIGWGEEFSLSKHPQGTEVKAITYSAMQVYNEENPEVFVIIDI
UniProt Q13426: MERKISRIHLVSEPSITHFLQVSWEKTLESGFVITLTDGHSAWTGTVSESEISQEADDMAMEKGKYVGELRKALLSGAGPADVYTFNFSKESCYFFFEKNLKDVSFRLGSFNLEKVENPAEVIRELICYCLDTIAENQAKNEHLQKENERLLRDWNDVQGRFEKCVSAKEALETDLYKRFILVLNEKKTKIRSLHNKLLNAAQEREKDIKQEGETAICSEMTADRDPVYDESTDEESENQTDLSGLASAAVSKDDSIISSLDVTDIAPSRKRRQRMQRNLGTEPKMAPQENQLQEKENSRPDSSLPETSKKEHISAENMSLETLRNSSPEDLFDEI
UniProt Q5SVZ6: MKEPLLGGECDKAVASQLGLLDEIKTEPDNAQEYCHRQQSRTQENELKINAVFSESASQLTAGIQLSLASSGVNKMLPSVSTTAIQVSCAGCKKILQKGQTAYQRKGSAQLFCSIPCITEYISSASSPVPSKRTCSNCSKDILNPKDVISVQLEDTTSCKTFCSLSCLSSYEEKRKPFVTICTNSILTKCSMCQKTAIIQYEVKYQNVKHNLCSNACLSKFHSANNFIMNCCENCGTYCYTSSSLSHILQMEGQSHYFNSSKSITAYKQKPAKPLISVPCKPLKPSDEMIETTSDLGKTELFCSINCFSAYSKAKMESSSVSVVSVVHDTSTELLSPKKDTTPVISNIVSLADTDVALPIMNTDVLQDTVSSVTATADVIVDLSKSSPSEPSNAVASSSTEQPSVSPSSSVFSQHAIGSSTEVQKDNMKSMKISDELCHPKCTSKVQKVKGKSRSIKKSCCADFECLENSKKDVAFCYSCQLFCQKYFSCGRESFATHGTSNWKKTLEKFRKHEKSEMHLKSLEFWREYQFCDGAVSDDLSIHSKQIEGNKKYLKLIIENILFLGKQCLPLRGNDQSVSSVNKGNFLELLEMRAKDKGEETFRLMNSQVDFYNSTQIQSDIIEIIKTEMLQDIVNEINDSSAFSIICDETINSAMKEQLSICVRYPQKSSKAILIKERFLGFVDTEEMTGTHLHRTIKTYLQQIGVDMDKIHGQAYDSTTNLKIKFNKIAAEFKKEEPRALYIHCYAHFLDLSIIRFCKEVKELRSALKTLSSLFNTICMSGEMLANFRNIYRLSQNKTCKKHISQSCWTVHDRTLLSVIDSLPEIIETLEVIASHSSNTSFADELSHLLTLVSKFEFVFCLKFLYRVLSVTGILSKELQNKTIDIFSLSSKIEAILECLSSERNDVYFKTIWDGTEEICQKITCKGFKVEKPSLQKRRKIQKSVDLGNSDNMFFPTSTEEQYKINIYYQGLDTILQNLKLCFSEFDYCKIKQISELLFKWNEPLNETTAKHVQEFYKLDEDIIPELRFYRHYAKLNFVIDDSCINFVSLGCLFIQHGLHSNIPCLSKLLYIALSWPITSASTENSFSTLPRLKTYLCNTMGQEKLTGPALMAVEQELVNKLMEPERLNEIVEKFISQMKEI
UniProt Q9NQW7: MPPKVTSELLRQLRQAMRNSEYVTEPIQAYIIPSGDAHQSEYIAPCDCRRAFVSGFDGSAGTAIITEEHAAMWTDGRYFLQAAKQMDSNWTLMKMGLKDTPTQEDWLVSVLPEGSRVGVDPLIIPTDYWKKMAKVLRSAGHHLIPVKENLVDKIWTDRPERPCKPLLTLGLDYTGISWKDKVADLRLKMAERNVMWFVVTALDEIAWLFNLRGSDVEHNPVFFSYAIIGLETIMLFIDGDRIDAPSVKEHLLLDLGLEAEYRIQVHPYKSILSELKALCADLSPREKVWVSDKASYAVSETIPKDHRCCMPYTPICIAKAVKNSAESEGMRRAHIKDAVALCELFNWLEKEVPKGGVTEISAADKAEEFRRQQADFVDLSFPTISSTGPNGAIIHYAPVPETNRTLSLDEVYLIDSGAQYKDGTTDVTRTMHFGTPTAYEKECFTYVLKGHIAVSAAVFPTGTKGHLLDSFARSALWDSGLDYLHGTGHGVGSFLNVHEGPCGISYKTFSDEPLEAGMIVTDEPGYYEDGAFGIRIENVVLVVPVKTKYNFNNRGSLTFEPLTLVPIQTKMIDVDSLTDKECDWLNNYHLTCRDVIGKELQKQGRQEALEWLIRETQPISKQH
UniProt Q8WU90: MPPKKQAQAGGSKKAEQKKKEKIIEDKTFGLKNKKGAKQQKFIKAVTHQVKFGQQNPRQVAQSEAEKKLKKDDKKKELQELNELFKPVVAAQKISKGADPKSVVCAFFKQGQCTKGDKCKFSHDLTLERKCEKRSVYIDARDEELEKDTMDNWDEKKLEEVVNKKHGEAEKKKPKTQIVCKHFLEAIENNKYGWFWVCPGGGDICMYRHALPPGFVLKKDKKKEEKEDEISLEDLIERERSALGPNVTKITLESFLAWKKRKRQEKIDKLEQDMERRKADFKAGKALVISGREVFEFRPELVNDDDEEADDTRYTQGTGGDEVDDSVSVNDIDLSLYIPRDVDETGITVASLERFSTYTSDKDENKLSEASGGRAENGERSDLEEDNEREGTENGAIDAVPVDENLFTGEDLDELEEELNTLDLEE

[2] = compound: CC1=C(C=C(C=C1)NC(=O)C2=CC(=CC=C2)N(C)C)NC(=O)C3=CC=C(C=C3)O
Outline: as §1

[3] = compound: CC1=CC=C(C=C1)SC2=C3C=C(SC3=CN=C2)C(=O)N
Outline: as §1

[4] = compound: CC1=NC(=CC=C1)C2=C(N=C(N2)C(C)(C)C)C3=CC4=NC=CN=C4C=C3
Outline: as §1

Nexturastat A = compound: CCCCN(Cc1ccc(C(=O)NO)cc1)C(=O)Nc1ccccc1 [Nexturastat A]
Outline: as §1

vemurafenib = compound: CCCS(=O)(=O)Nc1ccc(F)c(C(=O)c2c[nH]c3ncc(-c4ccc(Cl)cc4)cc23)c1F [vemurafenib]
Outline: as §1

[5] = compound: CCCS(=O)(=O)Nc1ccc(F)c(C(=O)c2c[nH]c3ncc(Cl)cc23)c1F
Outline: as §1

[6] = compound: CCCc1cc(C)[nH]c(=O)c1CNC(=O)c1cc(-c2ccnc(N3CCN(C)CC3)c2)cc2c1cnn2C(C)C
Outline: as §1

givinostat = compound: CCN(CC)Cc1ccc2cc(COC(=O)Nc3ccc(C(=O)NO)cc3)ccc2c1 [givinostat]
Outline: as §1

barasertib = compound: CCN(CCCOc1ccc2c(Nc3cc(CC(=O)Nc4cccc(F)c4)[nH]n3)ncnc2c1)CCOP(=O)(O)O [barasertib]
Outline: as §1

Row | Target | log2 fold change [1] | log2 fold change [2] | log2 fold change [3] | log2 fold change [4] | log2 fold change (Nexturastat A) | log2 fold change (vemurafenib) | log2 fold change [5] | log2 fold change [6] | log2 fold change (givinostat) | log2 fold change (barasertib)
1 | ZDHHC14 (UniProt Q8IZN3) | inactive: -0.036 | inactive: 0.033 | inactive: -0.078 | inactive: -0.066 | inactive: -0.065 | inactive: 0.159 | inactive: -0.024 | inactive: -0.027 | inactive: 0.016 | inactive: 0.057
2 | ZFAND5 (UniProt O76080) | inactive: -0.064 | inactive: 0.034 | inactive: -0.047 | inactive: 0.007 | active: 0.371 | inactive: -0.106 | inactive: -0.058 | inactive: -0.038 | inactive: -0.016 | inactive: -0.013
3 | YWHAG (UniProt P61981) | inactive: -0.014 | inactive: -0.026 | inactive: -0.056 | inactive: 0.011 | inactive: -0.028 | inactive: 0.058 | inactive: -0.071 | inactive: 0.093 | inactive: -0.025 | inactive: 0.004
4 | YWHAH (UniProt Q04917) | inactive: 0.021 | inactive: 0 | inactive: -0.021 | inactive: 0.029 | inactive: -0.026 | inactive: 0.012 | inactive: -0.004 | inactive: -0.011 | inactive: -0.05 | inactive: 0.019
5 | YLPM1 (UniProt P49750) | inactive: -0.095 | inactive: -0.023 | inactive: -0.008 | inactive: 0.043 | inactive: 0.046 | inactive: 0.017 | inactive: 0.047 | inactive: 0.083 | inactive: 0.061 | inactive: 0.03
6 | ZDHHC5 (UniProt Q9C0B5) | inactive: 0.048 | inactive: -0.007 | inactive: -0.011 | inactive: -0.013 | inactive: -0.001 | inactive: -0.021 | inactive: -0.009 | inactive: 0.095 | inactive: -0.001 | inactive: -0.001
7 | ZMAT2 (UniProt Q96NC0) | inactive: 0.209 | inactive: 0 | inactive: 0.113 | inactive: 0.088 | inactive: -0.011 | inactive: -0.021 | inactive: -0.008 | inactive: -0.044 | inactive: -0.008 | inactive: -0.047
8 | YDJC (UniProt A8MPS7) | inactive: -0.002 | inactive: -0.069 | inactive: -0.016 | inactive: 0.013 | inactive: 0.058 | inactive: -0.005 | inactive: 0 | inactive: -0.029 | inactive: 0.003 | inactive: -0.011
9 | XRCC5 (UniProt P13010) | inactive: 0.073 | inactive: -0.08 | inactive: 0.044 | inactive: 0.143 | inactive: 0.033 | inactive: 0.115 | inactive: 0.189 | inactive: 0.109 | inactive: 0.234 | inactive: 0.143
10 | YIPF5 isoform 3 (UniProt Q969M3) | inactive: 0.042 | inactive: -0.138 | inactive: 0.071 | inactive: -0.073 | inactive: 0.091 | inactive: -0.021 | inactive: -0.096 | inactive: -0.005 | inactive: -0.053 | inactive: -0.08
11 | ZNF217 (UniProt O75362) | inactive: 0.075 | inactive: 0.006 | inactive: -0.107 | inactive: 0.01 | inactive: 0.006 | inactive: 0.044 | active: 0.688 | inactive: 0.003 | inactive: 0.037 | inactive: 0.03
12 | XRN2 (UniProt Q9H0D6) | inactive: -0.017 | inactive: -0.022 | inactive: -0.051 | inactive: 0.003 | inactive: 0.092 | inactive: 0 | inactive: -0.022 | inactive: -0.019 | inactive: 0.05 | inactive: -0.037
13 | XPO4 (UniProt Q9C0E2) | inactive: 0.007 | inactive: 0.003 | inactive: -0.001 | inactive: 0.01 | inactive: -0.057 | inactive: -0.009 | inactive: 0.036 | inactive: -0.06 | inactive: -0.002 | inactive: 0.019
14 | ZCCHC3 (UniProt Q9NUD5) | inactive: -0.006 | inactive: 0.101 | inactive: -0.135 | inactive: -0.054 | inactive: 0.168 | inactive: -0.136 | inactive: -0.076 | inactive: 0.041 | inactive: -0.052 | inactive: -0.053
15 | YWHAE (UniProt P62258) | inactive: 0.009 | inactive: 0.026 | inactive: -0.015 | inactive: 0.016 | inactive: -0.055 | inactive: 0.002 | inactive: -0.029 | inactive: -0.04 | inactive: -0.02 | inactive: 0.003
16 | ZBTB8OS (UniProt Q8IWT0) | inactive: 0.073 | inactive: 0.012 | inactive: -0.044 | inactive: 0.074 | inactive: -0.056 | inactive: -0.002 | inactive: -0.003 | inactive: -0.052 | inactive: -0.025 | inactive: 0.026
17 | ZNF143 (UniProt P52747) | inactive: -0.023 | inactive: 0.023 | inactive: -0.042 | inactive: 0.021 | inactive: 0.19 | inactive: 0.029 | inactive: 0.063 | inactive: -0.006 | inactive: -0.022 | inactive: 0.01
18 | ZFYVE9 (UniProt O95405) | inactive: 0.131 | inactive: -0.019 | inactive: -0.011 | inactive: 0.083 | inactive: 0.09 | inactive: -0.011 | inactive: 0.083 | inactive: -0.156 | inactive: 0.06 | inactive: 0.105
19 | ZFAND6 (UniProt Q6FIF0) | inactive: 0.069 | inactive: 0.026 | inactive: -0.01 | inactive: -0.088 | inactive: 0.027 | inactive: -0.024 | inactive: 0.002 | inactive: -0.051 | inactive: 0.017 | inactive: 0.04
20 | ZC3H8 (UniProt Q8N5P1) | inactive: -0.021 | inactive: 0.03 | inactive: -0.115 | inactive: -0.176 | inactive: 0.106 | inactive: -0.071 | inactive: -0.138 | inactive: -0.027 | inactive: -0.106 | inactive: -0.075
21 | ZFPL1 (UniProt O95159) | inactive: 0.061 | inactive: 0.094 | inactive: 0.008 | inactive: 0.032 | inactive: -0.064 | inactive: 0.021 | inactive: 0.006 | inactive: -0.05 | inactive: -0.09 | inactive: -0.032
22 | XRCC4 (UniProt Q13426) | inactive: -0.015 | inactive: -0.01 | inactive: -0.042 | inactive: 0.014 | inactive: -0.046 | inactive: -0.016 | inactive: -0.065 | inactive: 0.009 | inactive: -0.026 | inactive: -0.019
23 | YARS (UniProt P54577) | inactive: -0.027 | inactive: -0.025 | inactive: 0.047 | inactive: -0.01 | inactive: 0.079 | inactive: 0.038 | inactive: 0.082 | inactive: 0.042 | inactive: 0.057 | inactive: 0.048
24 | ZMYM1 (UniProt Q5SVZ6) | inactive: -0.071 | inactive: 0.051 | inactive: 0.061 | inactive: 0.042 | inactive: 0.059 | inactive: -0.095 | inactive: -0.006 | inactive: -0.017 | inactive: 0.12 | inactive: 0.022
25 | YRDC (UniProt Q86U90) | inactive: -0.015 | inactive: -0.033 | inactive: 0.006 | inactive: 0.031 | inactive: -0.005 | inactive: -0.009 | inactive: 0.002 | inactive: -0.015 | inactive: 0.053 | inactive: -0.027
26 | XPNPEP1 isoform 3 (UniProt Q9NQW7) | inactive: 0.014 | inactive: -0.024 | inactive: 0.023 | inactive: 0.036 | inactive: -0.014 | inactive: 0 | inactive: 0.021 | inactive: -0.01 | inactive: 0.042 | inactive: 0.016
27 | ZNF24 (UniProt P17028) | inactive: -0.034 | inactive: 0.008 | inactive: -0.064 | inactive: -0.053 | inactive: 0.17 | inactive: -0.133 | inactive: -0.057 | inactive: 0.022 | inactive: -0.027 | inactive: 0.022
28 | ZC3H15 (UniProt Q8WU90) | inactive: -0.021 | inactive: -0.005 | inactive: -0.008 | inactive: -0.03 | inactive: 0.179 | inactive: -0.018 | inactive: -0.029 | inactive: -0.108 | inactive: 0.009 | inactive: -0.05
29 | ZC3H14 (UniProt Q6PJT7) | inactive: -0.041 | inactive: 0.016 | inactive: -0.035 | inactive: -0.029 | inactive: 0.115 | inactive: -0.029 | inactive: 0.025 | inactive: 0.131 | inactive: 0.073 | inactive: -0.05

Record cards, from the list above. Order of values: log2 fold change [1]	log2 fold change [2]	log2 fold change [3]	log2 fold change [4]	log2 fold change (Nexturastat A)	log2 fold change (vemurafenib)	log2 fold change [5]	log2 fold change [6]	log2 fold change (givinostat)	log2 fold change (barasertib)
XRCC5 (UniProt P13010) in the list: inactive: 0.073	inactive: -0.08	inactive: 0.044	inactive: 0.143	inactive: 0.033	inactive: 0.115	inactive: 0.189	inactive: 0.109	inactive: 0.234	inactive: 0.143
ZC3H15 (UniProt Q8WU90) in the list: inactive: -0.021	inactive: -0.005	inactive: -0.008	inactive: -0.03	inactive: 0.179	inactive: -0.018	inactive: -0.029	inactive: -0.108	inactive: 0.009	inactive: -0.05
